Assay results from article PMC11727998, “Purification and Electron Transfer from Soluble c-Type Cytochrome TorC to TorA for Trimethylamine N-Oxide Reduction” (International Journal of Molecular Sciences, 2024).
These are yes or no findings as the source states them, for the method shown. Some binding calls cover weakened binding; strength is not graded here.

Tests used:
TorA (TMAO reductase) = target: T1, TorA (TMAO reductase) (E. coli, UniProt P33225 40-848); assay: cross-linking; 5 µM TorA, 5 µM TorC, 1 mM DSPP, 100 mM NaCl, 20 mM HEPES pH 7.4, 1 h at RT; tryptic digest, enrichment, LC-MS; four replicates; both purified
T1 sequence: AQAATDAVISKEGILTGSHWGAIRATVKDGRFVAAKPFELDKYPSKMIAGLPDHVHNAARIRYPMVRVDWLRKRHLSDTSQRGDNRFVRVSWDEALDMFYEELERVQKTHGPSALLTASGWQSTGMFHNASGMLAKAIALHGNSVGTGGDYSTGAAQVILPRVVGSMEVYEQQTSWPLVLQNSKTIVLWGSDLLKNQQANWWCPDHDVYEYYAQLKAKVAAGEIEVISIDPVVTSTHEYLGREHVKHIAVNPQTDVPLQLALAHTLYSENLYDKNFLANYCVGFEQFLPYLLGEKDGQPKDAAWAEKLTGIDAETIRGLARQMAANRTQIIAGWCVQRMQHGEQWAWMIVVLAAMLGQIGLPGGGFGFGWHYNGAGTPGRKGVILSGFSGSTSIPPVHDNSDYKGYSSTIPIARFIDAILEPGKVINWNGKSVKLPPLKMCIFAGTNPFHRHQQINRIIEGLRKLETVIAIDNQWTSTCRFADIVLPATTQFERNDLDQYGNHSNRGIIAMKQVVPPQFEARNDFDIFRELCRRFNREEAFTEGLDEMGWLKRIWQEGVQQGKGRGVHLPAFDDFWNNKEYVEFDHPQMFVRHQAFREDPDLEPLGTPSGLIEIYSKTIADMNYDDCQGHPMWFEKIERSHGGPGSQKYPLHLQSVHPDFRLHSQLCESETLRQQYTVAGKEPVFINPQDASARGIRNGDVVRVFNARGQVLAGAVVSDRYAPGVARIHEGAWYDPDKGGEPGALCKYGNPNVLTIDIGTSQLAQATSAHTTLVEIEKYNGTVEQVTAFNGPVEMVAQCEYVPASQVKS

apo-TorA = target: T2, apo-TorA (E. coli, UniProt P33225 40-848); assay: SEC; analytical Superdex 200 10/300 GL, 30 µM of each protein in 20 mM phosphate buffer, pH 7.4; fractions on SDS-PAGE; both purified
T2 construct: TorA, TMAO reductase of E. coli, apo form; Apo form (without cofactor); source: purified following published procedures [31]
T2 sequence: T1 sequence

[1] = target: soluble TorC (heme-containing, holo-TorC) (E. coli) (UniProt P33226); assay: SEC; Ni-NTA-purified TorC alone (approx. 20 mg) on a 16/600 Superdex 200 prep-grade column in 50 mM Tris-HCl, pH 7.6; both purified

B1: soluble TorC (heme-containing, holo-TorC) (natural protein, E. coli, UniProt P33226 21-390, looked up)
chain: VAIGIVIGIALIVLPHVGIKVTSTTEFCVSCHSMQPVYEEYKQSVHFQNASGVRAECHDCHIPPDIPGMVKRKLEASNDIYQTFIAHSIDTPEKFEAKRAELAEREWARMKENNSATCRSCHNYDAMDHAKQHPEAARQMKVAAKDNQSCIDCHKGIAHQLPDMSSGFRKQFDELRASANDSGDTLYSIDIKPIYAAKGDKEASGSLLPASEVKVLKRDGDWLQIEITGWTESAGRQRVLTQFPGKRIFVASIRGDVQQQVKTLEKTTVADTNTEWSKLQATAWMKKGDMVNDIKPIWAYADSLYNGTCNQCHGAPEIAHFDANGWIGTLNGMIGFTSLDKREERTLLKYLQMNASDTAGKAHGDKKEEK
modifications: heme c at the five CXXCH motifs (iron saturation about 75% of five hemes)
notes: TorC, pentahemic c-type cytochrome of E. coli, lacking the N-terminal 20 amino acid membrane anchor (first 60 nucleotides of the gene deleted); also called soluble periplasmic TorC; source: E. coli HM125 with pTorC-SS and pEC86 (ccmABCDEFGH), hemin added, purified (Ni-NTA, gel filtration)
In the case of B1, the binding (TorA (TMAO reductase)) is reported as “binds”, the binding (apo-TorA) is reported as “binds” and the binding [1] is reported as “no binding”.
